# Reference: PubChem BioAssay
# Where “and” joins values, the source holds several entries; their conditions need not be identical. Equal values may be shown once. The list shows a part of the results. Potency and affinity values are given separately. The source made no clear call on entries shown without one.
# Tests used:
# [1] = Polyglutamine toxicity reduction dose response, whole organism Drosophila SCA1 model (AID 1595); settings: at 1 µM, stronger effect = higher value
# PubChem AID 1597 = settings: Drosophila SCA1 polyglutamine model, at 1 µM, stronger effect = higher value
SMILES,suppression of toxicity [1],suppression of toxicity (PubChem AID 1597)
CCn1cc(C(=O)O)c(=O)c2cnc(N3CCNCC3)nc21,1.43,7.86
CCN(CC)C(C)CN1c2ccccc2Sc2ccccc21 (configuration not stated),5.71,7.14
NCCc1cnc[nH]1,0,4.29
NS(=O)(=O)c1cc(C(=O)O)c(NCc2ccco2)cc1Cl,25.7,3.57
O=C(O)c1cc(=O)c2c(OCC(O)COc3cccc4oc(C(=O)O)cc(=O)c34)cccc2o1,1.43,4.29
CN1C[C@H](C(=O)N[C@]2(C)O[C@@]3(O)[C@@H]4CCCN4C(=O)[C@H](Cc4ccccc4)N3C2=O)C[C@@H]2c3cccc4[nH]cc(c34)C[C@H]21,1.43,2.86
O=c1cc(-c2ccccc2)oc2cc(O)c(O)cc12,1.43,4.29
Cc1nnc(SCC2=C(C(=O)O)N3C(=O)[C@@H](NC(=O)Cn4cnnn4)[C@H]3SC2)s1,7.14,6.42
Cc1nnc(NS(=O)(=O)c2ccc(N)cc2)s1,1.43,3.58
CCCNC(=O)NS(=O)(=O)c1ccc(Cl)cc1,1.43,1.43
CN1CCc2cccc3c2C1Cc1ccc(O)c(O)c1-3 (configuration not stated),2.86,5.71
CCOc1ccc2c(c1)C(C)=CC(C)(C)N2,1.43,2.85
CN1CCN(C(c2ccccc2)c2ccc(Cl)cc2)CC1 (configuration not stated),2.86,12.9
Cc1cc(CC(=O)O)n(C)c1C(=O)c1ccc(Cl)cc1,2.85,3.58
OCc1ccccc1O[C@@H]1O[C@H](CO)[C@@H](O)[C@H](O)[C@H]1O,5.71,10
C[C@@H]1CC2C3CCC4=CC(=O)C=C[C@]4(C)[C@@]3(F)[C@@H](O)C[C@]2(C)[C@@]1(O)C(=O)CO (some centres not stated),7.14,7.86
O=C(O)c1c2ccccc2cc2ccccc12,0,0.715
CCOC(N)=O,2.85,1.43
Cc1cc(Nc2ccccc2C(=O)O)ccc1Cl,2.85,3.57
O=C(/C=C/C=C/c1ccc2c(c1)OCO2)N1CCCCC1,11.4,9.29
Oc1ccc(Cl)c2cccnc12,7.14,7.86

SMILES,suppression of toxicity [1],suppression of toxicity (PubChem AID 1597)
CCN(CC)CCOC(=O)c1ccc(N)cc1,1.43,6.43
NCCCC(=O)O,2.85,0
CCCCC(=O)O[C@H]1CCC2C3CCc4cc(O)ccc4C3CC[C@@]21C (some centres not stated),0,7.14
CC(=O)OCC1=C(C(=O)O)N2C(=O)[C@@H](NC(=O)CSc3ccncc3)[C@H]2SC1,0,5.71
CC(=O)C1CCC2C3CC=C4CC(OS(=O)(=O)O)CC[C@]4(C)C3CC[C@]12C (some centres not stated),0,0.715
C[n+]1c2cc(N)ccc2cc2ccc(N)cc21,2.86,10.7
COc1c(C)c2c(c(O)c1C/C=C(\C)CCC(=O)O)C(=O)OC2,2.85,11.4
CC1CCC2(OC1)OC1CC3C4CC[C@H]5C[C@@H](O)CC[C@]5(C)C4CC(=O)[C@]3(C)C1C2C (some centres not stated),0,2.85
CN[C@@H]1C(OC2[C@H](O[C@H]3[C@H](O)[C@@H](O)[C@H](N=C(N)N)[C@@H](O)[C@@H]3N=C(N)N)OC(C)[C@]2(O)CO)OC(CO)C(O)C1O (some centres not stated),10,0
CCOC(=O)C(C)(C)Oc1ccc(Cl)cc1,17.1 and 0,12.9 and 0
COc1ccc2c3c1O[C@H]1C[C@@H](O)C=C[C@@]31CCN(C)C2,2.86,2.86
Cn1nnnc1SCC1=C(C(=O)O)N2C(=O)C(NC(=O)C(O)c3ccccc3)C2SC1 (configuration not stated),12.9,11.4
Nc1ccn(C2O[C@H](CO)[C@@H](O)[C@H]2O)c(=O)n1 (some centres not stated),15.7,17.1
CCCCCCc1ccc(O)cc1O,5.74,10.1
Cc1cccc(CN2CCN(C(c3ccccc3)c3ccc(Cl)cc3)CC2)c1 (configuration not stated),30,2.15
CC(=O)O[C@H]1C(=O)[C@@]2(C)C([C@H](OC(=O)c3ccccc3)[C@]3(O)C[C@H](OC(=O)[C@H](O)[C@@H](NC(=O)c4ccccc4)c4ccccc4)C(C)=C1C3(C)C)[C@]1(OC(C)=O)CO[C@@H]1C[C@@H]2O (some centres not stated),2.85,2.86
O=c1c(O)c(-c2ccc(O)c(O)c2)oc2cc(O)cc(O)c12,8.57,5
O=C1OCCN1/N=C/c1ccc([N+](=O)[O-])o1,0,4.29
COc1cccc(OC)c1C(=O)N[C@@H]1C(=O)N2[C@@H]1SC(C)(C)[C@@H]2C(=O)O,2.85,4.29
OCCN1CCN(CCCN2c3ccccc3Sc3ccc(Cl)cc32)CC1,1.43,1.43
